Results are given in words; binding and its absence hold for the method and conditions named. Binding seen in cells or lysates may run through a third protein. Some results given as binding are weak or reduced against the parent protein; the word gives no strength.
Key:
[1] = target: P426A/P437A mutant (2P-A) FOXO3-FLAG (from pCMV6-FOXO3(P426A/P437A)::MYC-DDK) (UniProt O43524); assay: co-IP; as a1, but HEK293T cells without DMOG; anti-FLAG magnetic beads at 4°C overnight; Western blot with anti-V5 and anti-FLAG
[2] = target: FOXO3-FLAG (Forkhead box O3, from pCMV6-FOXO3::MYC-DDK) (UniProt O43524); assay: co-IP; HEK293T cells transfected with both tagged proteins, treated with DMOG (1 mM) or MG132 (12,5 μM); lysis buffer 100 mM NaCl, 20 mM tris-HCl pH 7.4, 5 mM MgCl2, 0.5% Nonidet P-40; anti-FLAG magnetic beads at 4°C overnight; Western blot with anti-V5 and anti-FLAG
[3] = target: P426A/P437A mutant (2P-A) FOXO3-FLAG (from pCMV6-FOXO3(P426A/P437A)::MYC-DDK) (UniProt O43524); assay: as above

Amino acid sequences for entries named in this document (tags omitted). A change or cut given only in a name is not applied to a line headed by its entry.
UniProt O43524: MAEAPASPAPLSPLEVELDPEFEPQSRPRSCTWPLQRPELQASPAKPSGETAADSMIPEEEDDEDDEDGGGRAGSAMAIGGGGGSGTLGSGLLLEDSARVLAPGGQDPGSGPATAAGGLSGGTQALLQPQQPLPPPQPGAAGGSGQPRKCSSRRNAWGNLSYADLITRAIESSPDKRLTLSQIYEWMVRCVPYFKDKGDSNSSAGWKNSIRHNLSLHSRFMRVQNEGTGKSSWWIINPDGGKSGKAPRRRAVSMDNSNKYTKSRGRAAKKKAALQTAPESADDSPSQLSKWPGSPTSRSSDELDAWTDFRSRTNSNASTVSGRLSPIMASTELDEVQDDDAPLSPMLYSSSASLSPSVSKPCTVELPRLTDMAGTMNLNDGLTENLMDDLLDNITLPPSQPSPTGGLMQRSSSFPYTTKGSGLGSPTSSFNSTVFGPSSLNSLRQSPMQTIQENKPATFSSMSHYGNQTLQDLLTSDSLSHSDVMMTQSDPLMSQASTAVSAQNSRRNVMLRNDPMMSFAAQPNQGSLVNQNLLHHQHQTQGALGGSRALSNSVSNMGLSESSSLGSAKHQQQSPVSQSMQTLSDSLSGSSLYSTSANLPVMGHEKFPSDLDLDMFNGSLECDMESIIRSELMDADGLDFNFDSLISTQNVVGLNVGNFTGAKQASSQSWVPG
UniProt Q9H6Z9: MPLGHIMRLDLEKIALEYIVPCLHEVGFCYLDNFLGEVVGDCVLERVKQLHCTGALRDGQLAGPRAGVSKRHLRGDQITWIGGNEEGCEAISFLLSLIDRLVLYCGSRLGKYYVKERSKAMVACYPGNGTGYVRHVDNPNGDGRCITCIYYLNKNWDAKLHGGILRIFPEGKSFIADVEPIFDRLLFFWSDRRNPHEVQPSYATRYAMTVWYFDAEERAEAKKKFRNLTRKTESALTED

PHD3-V5 (HIF prolyl hydroxylase 3, from pCMV6-PHD3::V5) (from UniProt Q9H6Z9 1-239) (enzyme)
binding [1]: no binding (condition: cells without DMOG) | binding [2]: binds | binding [3]: binds

From PMC12118632
